This is one part of the list.
Key:
Assay in all cases: log2 fold change, soluble protein after heating vs DMSO (PISA); higher = thermal stabilisation; K562 lysate, 10 uM; active = over 0.2 and 3.5 SD of the protein, either way, in both replicates (recomputed)
erlotinib = compound: C#Cc1cccc(Nc2ncnc3cc(OCCOC)c(OCCOC)cc23)c1 [erlotinib]
Outline: (§1)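 Values give the log-two fold change in thermal stability against solvent controls, from duplicates. Crude K562 extract at 1 mg/mL protein, made by dounce homogenisation in PBS pH 7.4 with 1 mM MgCl2, was treated with 10 μM compound for 30 min. After 3 min heating across 48°C-58°C, aliquots were pooled, adjusted to 0.5% NP-40 at 4°C and centrifuged at 21,000xg for 90 min. The supernatant was measured by TMTpro 16plex LC-MS/MS with channel sums equalised.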

Chains of the proteins cited; added tags and fusions are not shown. Lines headed by an entry give the natural chain unless they say otherwise; changes in a name come on top.
UniProt Q9Y2Q5, whole entry, looked up: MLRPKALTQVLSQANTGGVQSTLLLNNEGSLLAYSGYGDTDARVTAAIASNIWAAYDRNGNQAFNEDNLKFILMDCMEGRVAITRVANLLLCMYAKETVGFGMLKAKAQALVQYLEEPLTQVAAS
UniProt O60662: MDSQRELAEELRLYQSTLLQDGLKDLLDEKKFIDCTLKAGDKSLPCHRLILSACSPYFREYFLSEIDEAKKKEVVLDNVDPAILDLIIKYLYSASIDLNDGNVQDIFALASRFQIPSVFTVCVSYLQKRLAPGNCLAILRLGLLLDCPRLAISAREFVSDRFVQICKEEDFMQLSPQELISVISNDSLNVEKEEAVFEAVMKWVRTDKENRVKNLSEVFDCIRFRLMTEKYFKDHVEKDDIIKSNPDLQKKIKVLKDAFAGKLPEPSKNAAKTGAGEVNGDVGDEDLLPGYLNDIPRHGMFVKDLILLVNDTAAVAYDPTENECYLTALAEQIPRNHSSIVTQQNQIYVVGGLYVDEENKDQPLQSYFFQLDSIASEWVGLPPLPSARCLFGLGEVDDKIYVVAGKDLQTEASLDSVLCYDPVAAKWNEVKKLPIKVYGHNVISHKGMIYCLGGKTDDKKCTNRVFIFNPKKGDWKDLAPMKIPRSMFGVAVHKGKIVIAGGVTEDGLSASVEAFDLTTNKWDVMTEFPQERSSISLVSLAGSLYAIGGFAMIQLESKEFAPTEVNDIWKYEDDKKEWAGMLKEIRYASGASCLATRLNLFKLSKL
UniProt Q9BW19: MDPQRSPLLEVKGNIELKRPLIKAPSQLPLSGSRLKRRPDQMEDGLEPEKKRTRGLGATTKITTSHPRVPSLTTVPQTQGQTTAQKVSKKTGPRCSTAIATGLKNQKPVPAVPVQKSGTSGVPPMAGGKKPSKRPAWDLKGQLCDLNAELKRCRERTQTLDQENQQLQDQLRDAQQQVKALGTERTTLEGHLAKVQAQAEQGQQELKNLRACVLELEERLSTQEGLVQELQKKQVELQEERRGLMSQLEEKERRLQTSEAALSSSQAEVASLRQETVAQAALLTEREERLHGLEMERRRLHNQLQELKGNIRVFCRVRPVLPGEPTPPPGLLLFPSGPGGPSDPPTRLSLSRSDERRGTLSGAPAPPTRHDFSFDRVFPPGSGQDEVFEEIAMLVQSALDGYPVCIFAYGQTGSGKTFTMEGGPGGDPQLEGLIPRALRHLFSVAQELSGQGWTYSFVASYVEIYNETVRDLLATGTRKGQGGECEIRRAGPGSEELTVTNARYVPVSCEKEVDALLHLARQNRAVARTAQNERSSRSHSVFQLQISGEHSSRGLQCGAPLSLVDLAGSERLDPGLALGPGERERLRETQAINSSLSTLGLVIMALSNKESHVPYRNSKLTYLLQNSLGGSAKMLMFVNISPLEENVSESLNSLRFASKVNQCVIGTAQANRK
UniProt A5PL33: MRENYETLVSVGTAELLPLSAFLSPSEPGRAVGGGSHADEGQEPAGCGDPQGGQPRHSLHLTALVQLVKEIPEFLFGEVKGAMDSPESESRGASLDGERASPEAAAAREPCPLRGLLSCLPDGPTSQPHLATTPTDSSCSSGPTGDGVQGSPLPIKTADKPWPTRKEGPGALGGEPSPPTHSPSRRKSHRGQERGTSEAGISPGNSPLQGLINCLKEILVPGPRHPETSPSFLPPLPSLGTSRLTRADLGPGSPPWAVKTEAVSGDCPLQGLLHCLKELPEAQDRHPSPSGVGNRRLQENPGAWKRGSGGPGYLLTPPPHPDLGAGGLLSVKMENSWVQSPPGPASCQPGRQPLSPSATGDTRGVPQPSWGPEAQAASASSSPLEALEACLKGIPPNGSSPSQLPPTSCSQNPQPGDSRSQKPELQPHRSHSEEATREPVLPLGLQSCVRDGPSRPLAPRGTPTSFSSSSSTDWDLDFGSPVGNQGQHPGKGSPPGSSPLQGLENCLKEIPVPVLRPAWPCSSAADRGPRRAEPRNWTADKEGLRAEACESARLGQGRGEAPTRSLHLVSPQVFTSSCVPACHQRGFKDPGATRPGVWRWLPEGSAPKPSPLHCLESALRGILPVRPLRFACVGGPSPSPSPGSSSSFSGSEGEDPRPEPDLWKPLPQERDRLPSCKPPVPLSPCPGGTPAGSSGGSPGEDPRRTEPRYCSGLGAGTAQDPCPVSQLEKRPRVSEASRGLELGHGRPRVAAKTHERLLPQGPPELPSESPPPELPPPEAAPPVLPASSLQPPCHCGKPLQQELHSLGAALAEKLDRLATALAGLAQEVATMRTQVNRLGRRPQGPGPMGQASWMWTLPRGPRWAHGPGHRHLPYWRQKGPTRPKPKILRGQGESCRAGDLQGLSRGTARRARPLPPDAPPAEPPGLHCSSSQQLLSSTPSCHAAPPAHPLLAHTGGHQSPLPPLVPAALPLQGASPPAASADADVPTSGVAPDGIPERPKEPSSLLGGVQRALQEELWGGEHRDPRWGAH
UniProt P50748: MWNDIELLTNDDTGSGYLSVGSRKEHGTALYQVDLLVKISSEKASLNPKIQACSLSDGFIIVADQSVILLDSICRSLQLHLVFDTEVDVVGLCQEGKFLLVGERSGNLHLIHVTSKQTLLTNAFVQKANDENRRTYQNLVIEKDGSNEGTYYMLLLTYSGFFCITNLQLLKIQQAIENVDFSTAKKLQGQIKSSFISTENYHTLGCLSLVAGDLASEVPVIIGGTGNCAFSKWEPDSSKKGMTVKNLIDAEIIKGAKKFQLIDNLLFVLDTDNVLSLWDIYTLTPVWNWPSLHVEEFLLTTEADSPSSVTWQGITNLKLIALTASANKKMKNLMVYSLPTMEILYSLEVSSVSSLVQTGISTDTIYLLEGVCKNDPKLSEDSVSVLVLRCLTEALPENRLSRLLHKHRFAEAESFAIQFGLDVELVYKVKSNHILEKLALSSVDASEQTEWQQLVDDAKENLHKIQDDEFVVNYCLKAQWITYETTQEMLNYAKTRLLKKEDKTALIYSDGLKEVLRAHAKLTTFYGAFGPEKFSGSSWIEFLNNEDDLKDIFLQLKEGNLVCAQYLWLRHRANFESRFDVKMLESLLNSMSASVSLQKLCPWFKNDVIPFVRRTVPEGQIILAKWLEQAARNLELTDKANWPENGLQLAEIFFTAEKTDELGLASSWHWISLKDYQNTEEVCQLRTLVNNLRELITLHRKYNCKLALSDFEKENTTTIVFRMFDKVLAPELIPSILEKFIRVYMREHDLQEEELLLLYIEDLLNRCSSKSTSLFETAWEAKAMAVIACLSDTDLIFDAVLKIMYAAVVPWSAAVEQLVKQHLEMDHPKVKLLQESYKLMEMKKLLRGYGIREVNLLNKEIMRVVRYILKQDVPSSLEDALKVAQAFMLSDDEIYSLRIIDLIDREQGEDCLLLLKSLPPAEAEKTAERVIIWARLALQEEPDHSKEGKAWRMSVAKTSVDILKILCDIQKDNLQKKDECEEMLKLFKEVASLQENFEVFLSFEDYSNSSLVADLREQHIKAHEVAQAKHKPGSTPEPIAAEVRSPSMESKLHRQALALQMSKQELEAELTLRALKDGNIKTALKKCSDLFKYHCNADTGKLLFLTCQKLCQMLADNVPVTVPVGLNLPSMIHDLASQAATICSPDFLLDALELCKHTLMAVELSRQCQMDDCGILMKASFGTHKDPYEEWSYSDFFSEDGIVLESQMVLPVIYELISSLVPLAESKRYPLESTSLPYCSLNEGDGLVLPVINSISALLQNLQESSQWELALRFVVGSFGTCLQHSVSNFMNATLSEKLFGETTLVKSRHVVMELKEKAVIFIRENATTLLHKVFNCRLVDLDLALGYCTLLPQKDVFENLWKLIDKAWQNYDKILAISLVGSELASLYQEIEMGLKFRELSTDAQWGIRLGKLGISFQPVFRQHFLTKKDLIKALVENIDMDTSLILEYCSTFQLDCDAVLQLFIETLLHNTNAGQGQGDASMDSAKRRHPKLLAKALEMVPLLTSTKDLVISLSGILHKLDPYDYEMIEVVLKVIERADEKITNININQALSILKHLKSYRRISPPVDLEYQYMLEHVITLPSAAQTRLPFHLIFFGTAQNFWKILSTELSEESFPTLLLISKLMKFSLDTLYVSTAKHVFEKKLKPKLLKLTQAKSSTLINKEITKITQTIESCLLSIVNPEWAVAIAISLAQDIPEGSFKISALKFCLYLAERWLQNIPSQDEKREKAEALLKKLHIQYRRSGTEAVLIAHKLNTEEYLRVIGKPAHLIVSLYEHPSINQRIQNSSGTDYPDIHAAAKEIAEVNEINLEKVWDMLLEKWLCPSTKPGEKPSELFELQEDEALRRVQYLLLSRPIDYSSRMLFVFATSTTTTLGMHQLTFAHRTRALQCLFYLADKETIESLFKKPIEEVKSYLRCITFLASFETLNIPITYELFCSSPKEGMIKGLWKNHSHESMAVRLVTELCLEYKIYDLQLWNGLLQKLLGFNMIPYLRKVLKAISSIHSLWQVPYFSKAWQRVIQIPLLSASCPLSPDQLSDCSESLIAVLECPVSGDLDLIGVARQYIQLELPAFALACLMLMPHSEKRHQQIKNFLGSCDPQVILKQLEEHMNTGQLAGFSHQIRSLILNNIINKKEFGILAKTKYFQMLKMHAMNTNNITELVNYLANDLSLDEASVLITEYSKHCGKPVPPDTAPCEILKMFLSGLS
UniProt Q9NQT8: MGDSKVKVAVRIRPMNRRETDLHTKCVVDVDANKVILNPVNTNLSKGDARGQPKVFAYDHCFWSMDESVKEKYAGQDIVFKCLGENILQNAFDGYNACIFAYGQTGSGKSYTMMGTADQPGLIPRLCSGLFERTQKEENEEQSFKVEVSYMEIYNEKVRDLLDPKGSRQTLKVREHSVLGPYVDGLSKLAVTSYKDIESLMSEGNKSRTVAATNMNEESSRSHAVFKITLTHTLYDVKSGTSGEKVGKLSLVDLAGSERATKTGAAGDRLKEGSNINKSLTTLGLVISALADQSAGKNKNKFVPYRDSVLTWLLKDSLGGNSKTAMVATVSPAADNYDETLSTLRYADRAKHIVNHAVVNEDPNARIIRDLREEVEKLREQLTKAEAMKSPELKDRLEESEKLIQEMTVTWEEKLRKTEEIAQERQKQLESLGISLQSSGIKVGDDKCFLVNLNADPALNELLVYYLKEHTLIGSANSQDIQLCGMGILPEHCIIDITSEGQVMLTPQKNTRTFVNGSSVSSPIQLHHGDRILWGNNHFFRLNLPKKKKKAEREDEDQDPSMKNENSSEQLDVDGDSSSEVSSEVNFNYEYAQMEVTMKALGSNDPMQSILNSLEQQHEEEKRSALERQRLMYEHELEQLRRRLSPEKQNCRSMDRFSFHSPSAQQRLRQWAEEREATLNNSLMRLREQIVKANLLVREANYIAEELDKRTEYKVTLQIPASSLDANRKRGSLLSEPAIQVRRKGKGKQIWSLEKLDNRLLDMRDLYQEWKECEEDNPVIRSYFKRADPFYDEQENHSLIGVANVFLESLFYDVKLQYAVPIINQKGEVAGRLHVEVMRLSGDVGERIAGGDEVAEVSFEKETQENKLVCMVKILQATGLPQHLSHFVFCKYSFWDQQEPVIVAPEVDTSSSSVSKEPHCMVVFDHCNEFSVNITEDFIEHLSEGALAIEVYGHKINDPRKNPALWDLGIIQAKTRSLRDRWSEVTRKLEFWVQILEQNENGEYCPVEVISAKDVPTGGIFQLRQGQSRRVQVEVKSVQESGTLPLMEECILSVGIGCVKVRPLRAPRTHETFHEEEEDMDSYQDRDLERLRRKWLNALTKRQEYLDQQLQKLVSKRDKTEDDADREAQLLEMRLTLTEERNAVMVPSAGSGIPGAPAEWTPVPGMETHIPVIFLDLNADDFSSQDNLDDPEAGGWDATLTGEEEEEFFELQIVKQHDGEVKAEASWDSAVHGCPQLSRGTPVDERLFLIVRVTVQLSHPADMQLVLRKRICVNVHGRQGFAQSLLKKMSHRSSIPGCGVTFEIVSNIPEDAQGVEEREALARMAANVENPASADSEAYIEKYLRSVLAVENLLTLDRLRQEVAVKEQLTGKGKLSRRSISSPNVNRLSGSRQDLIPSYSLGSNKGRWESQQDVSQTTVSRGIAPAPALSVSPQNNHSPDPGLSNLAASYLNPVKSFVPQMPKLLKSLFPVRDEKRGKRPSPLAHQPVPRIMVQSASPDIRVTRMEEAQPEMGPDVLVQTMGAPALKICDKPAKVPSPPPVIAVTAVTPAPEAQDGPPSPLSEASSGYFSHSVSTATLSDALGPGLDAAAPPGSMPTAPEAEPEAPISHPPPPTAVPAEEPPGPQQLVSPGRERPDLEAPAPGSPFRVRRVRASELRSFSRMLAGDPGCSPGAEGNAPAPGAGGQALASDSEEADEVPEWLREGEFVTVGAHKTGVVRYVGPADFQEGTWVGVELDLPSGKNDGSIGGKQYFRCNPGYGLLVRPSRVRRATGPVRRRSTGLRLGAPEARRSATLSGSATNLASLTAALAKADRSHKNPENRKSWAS

[1] = compound: C/C(=N\NC(=O)C1=CC(=CC=C1)S(=O)(=O)N2CCOCC2)/C3=C(C=CC(=C3)Cl)O
Outline: as §1

[2] = compound: C1=CC(=CC=C1C2=NC3=C(N2)C=C(C=C3)C(=O)N)OC4=CC=C(C=C4)Cl
Outline: as §1

[3] = compound: C1=CC2=C(C=CC(=C2)/C=C\3/C(=O)NC(=NCC4=CC=CS4)S3)N=C1
Outline: as §1

[4] = compound: C1=CC2=NC=CN=C2C=C1/C=C/3\C(=O)NC(=O)S3
Outline: as §1

[5] = compound: C1=CC=C(C=C1)C2=NC(=C(N2)C3=CC=NC=C3)C4=CC(=C(C=C4)Cl)O
Outline: as §1

[6] = compound: C1=CC=C2C(=C1)C3=NNC4=CC=CC(=C43)C2=O
Outline: as §1

[7] = compound: C1CCN(C1)C(=O)NC2=CC=CC(=C2)NC3=NC=C(C(=N3)NCCC4=CN=CN4)Br
Outline: as §1

[8] = compound: C1CN(CCC1(CC2=CC=C(C=C2)Cl)N)C3=NC=NC4=C3C=CN4
Outline: as §1

IRAK-1-4 Inhibitor I = compound: C1COCCN1CCN2C3=CC=CC=C3N=C2NC(=O)C4=CC(=CC=C4)[N+](=O)[O-] [IRAK-1-4 Inhibitor I]
Outline: as §1

ibrutinib = compound: C=CC(=O)N1CCC[C@@H](n2nc(-c3ccc(Oc4ccccc4)cc3)c3c(N)ncnc32)C1 [ibrutinib]
Outline: as §1

[9] = compound: CC(=O)c1cnc2ccc(-c3cc(Cl)c(O)c(Cl)c3)nc2c1N[C@H]1CC[C@H](CN(C)C)CC1
Outline: as §1

ralimetinib = compound: CC(C)(C)Cn1c(N)nc2ccc(-c3[nH]c(C(C)(C)C)nc3-c3ccc(F)cc3)nc21 [ralimetinib]
Outline: as §1

[10] = compound: CC(C)(O)CC(=O)NCCn1ccc2ncnc(Nc3ccc(Oc4cccc(C(F)(F)F)c4)c(Cl)c3)c21
Outline: as §1

[11] = compound: CC(C)C1=C2N=C(C=C(N2N=C1)NCC3=CC=CC=C3)NCCCCCCN
Outline: as §1

[12] = compound: CC1=C(C(CC(=O)N1)C2=CC=C(C=C2)C(F)(F)F)C(=O)NC3=C(C=C4C(=C3)C=NN4)F
Outline: as §1

[13] = compound: CC1=C(C2=C(C=C1)C(=O)C3=CC=CC=C3N2CCCN)C
Outline: as §1

[14] = compound: CC1=C(C=C(C=C1)NC(=O)C2=CC(=CC=C2)C(C)(C)C#N)NC3=CC4=C(C=C3)N=CN(C4=O)C
Outline: as §1

[15] = compound: CC1=C(C=C(C=C1)NC(=O)C2=CC(=CC=C2)N(C)C)NC(=O)C3=CC=C(C=C3)O
Outline: as §1

[16] = compound: CC1=CC=C(C=C1)SC2=C3C=C(SC3=CN=C2)C(=O)N
Outline: as §1

| Target | log2 fold change (erlotinib) | log2 fold change [1] | log2 fold change [2] | log2 fold change [3] | log2 fold change [4] | log2 fold change [5] | log2 fold change [6] | log2 fold change [7] | log2 fold change [8] | log2 fold change (IRAK-1-4 Inhibitor I) | log2 fold change (ibrutinib) | log2 fold change [9] | log2 fold change (ralimetinib) | log2 fold change [10] | log2 fold change [11] | log2 fold change [12] | log2 fold change [13] | log2 fold change [14] | log2 fold change [15] | log2 fold change [16] |
| --- | --- | --- | --- | --- | --- | --- | --- | --- | --- | --- | --- | --- | --- | --- | --- | --- | --- | --- | --- | --- |
| LAMTOR2 (UniProt Q9Y2Q5) | inactive: 0.03 | inactive: -0.03 | inactive: -0.007 | inactive: 0.032 | inactive: -0.011 | inactive: -0.038 | inactive: -0.024 | inactive: -0.05 | inactive: 0.021 | inactive: 0.05 | inactive: 0.002 | inactive: -0.087 | inactive: 0 | inactive: -0.038 | inactive: -0.009 | inactive: -0.039 | inactive: -0.014 | inactive: 0.058 | inactive: 0.026 | inactive: 0.055 |
| KLHL41 (UniProt O60662) | inactive: 0.086 | inactive: 0.096 | inactive: 0.055 | inactive: -0.022 | inactive: -0.097 | inactive: -0.045 | inactive: -0.17 | inactive: 0.058 | inactive: 0.112 | inactive: 0.079 | inactive: -0.063 | inactive: -0.073 | inactive: -0.005 | inactive: -0.205 | inactive: 0.036 | inactive: 0.011 | inactive: -0.086 | inactive: 0.328 | inactive: 0.027 | inactive: 0.022 |
| KHDRBS1 (UniProt Q07666) | inactive: -0.013 | inactive: 0.001 | inactive: -0.035 | inactive: 0.009 | inactive: -0.038 | inactive: 0.006 | inactive: -0.016 | inactive: 0.026 | inactive: 0.037 | inactive: -0.013 | inactive: 0.023 | active: -0.517 | inactive: -0.021 | inactive: -0.009 | inactive: 0.016 | inactive: 0.023 | inactive: 0.007 | inactive: -0.026 | inactive: 0 | inactive: 0.044 |
| KIFC1 (UniProt Q9BW19) | inactive: 0.003 | inactive: 0.061 | inactive: 0.011 | inactive: -0.002 | inactive: -0.048 | inactive: 0.011 | inactive: -0.012 | inactive: -0.009 | inactive: 0.025 | inactive: -0.023 | inactive: 0.021 | inactive: -0.002 | inactive: -0.025 | inactive: 0.007 | inactive: -0.012 | inactive: -0.009 | inactive: 0.004 | inactive: 0.002 | inactive: 0.011 | inactive: 0.002 |
| KRBA1 (UniProt A5PL33) | inactive: 0.105 | inactive: 0.114 | inactive: 0.005 | inactive: 0.093 | inactive: -0.056 | inactive: 0.132 | inactive: -0.195 | inactive: -0.105 | inactive: -0.016 | inactive: 0.071 | inactive: 0.113 | inactive: -0.185 | inactive: 0.054 | inactive: -0.01 | inactive: 0.057 |  | inactive: 0.136 | inactive: -0.107 | inactive: 0.058 | inactive: -0.086 |
| KNTC1 (UniProt P50748) | inactive: -0.004 | inactive: 0.009 | inactive: 0.013 | inactive: 0.033 | inactive: -0.006 | inactive: -0.014 | inactive: -0.05 | inactive: -0.021 | inactive: 0.027 | inactive: 0.004 | inactive: -0.012 | inactive: 0.005 | inactive: 0.013 | inactive: -0.047 | inactive: -0.014 | inactive: -0.009 | inactive: 0.002 | inactive: 0.021 | inactive: 0.044 | inactive: 0.017 |
| KPNA2 (UniProt P52292) | inactive: 0.009 | inactive: 0.03 | inactive: -0.026 | inactive: 0.005 | inactive: 0.002 | inactive: -0.003 | inactive: -0.053 | inactive: -0.017 | inactive: 0.013 | inactive: -0.02 | inactive: -0.044 | inactive: -0.011 | inactive: -0.001 | inactive: -0.023 | inactive: 0.009 | inactive: -0.01 | inactive: -0.027 | inactive: -0.032 | inactive: 0.051 | inactive: 0.041 |
| KYAT3 (UniProt Q6YP21) | inactive: -0.009 | inactive: -0.088 | inactive: -0.004 | inactive: 0.002 | inactive: 0.016 | inactive: -0.009 | inactive: -0.004 | inactive: -0.013 | inactive: -0.01 | inactive: -0.014 | inactive: 0.005 | inactive: 0.018 | inactive: 0.017 | inactive: 0.001 | inactive: -0.029 | inactive: -0.001 | inactive: -0.011 | inactive: 0.029 | inactive: -0.019 | inactive: 0 |
| KRR1 (UniProt Q13601) | inactive: 0.016 | inactive: -0.232 | inactive: -0.007 | inactive: -0.019 | inactive: 0.009 | inactive: -0.01 | inactive: 0.045 | inactive: -0.032 | inactive: 0.06 | inactive: -0.069 | inactive: 0.037 | inactive: 0.009 | inactive: 0.035 | inactive: 0.042 | inactive: -0.04 | inactive: 0.041 | inactive: -0.032 | inactive: 0.144 | inactive: 0.093 | inactive: -0.027 |
| KIF14 (UniProt Q15058) | inactive: 0.031 | inactive: -0.06 | inactive: 0.016 | inactive: -0.04 | inactive: -0.176 | inactive: 0.01 | inactive: -0.032 | inactive: -0.002 | inactive: 0.008 | inactive: -0.014 | inactive: 0.086 | inactive: 0.024 | inactive: 0.002 | inactive: 0.003 | inactive: 0.017 | inactive: 0.002 | inactive: -0.011 | inactive: 0.007 | inactive: 0.041 | inactive: -0.012 |
| LARP4B (UniProt Q92615) | inactive: -0.019 | inactive: 0.013 | inactive: -0.027 | inactive: -0.005 | inactive: 0.009 | inactive: -0.021 | inactive: 0.033 | inactive: 0.012 | inactive: -0.033 | inactive: -0.025 | inactive: 0 | inactive: 0.005 | inactive: 0.055 | inactive: 0.069 | inactive: -0.02 | inactive: -0.006 | inactive: 0.03 | inactive: -0.094 | inactive: 0.037 | inactive: 0.014 |
| KIAA1143 (UniProt Q96AT1) | inactive: 0.007 | inactive: -0.135 | inactive: 0.115 | inactive: -0.007 | inactive: -0.055 | inactive: -0.009 | inactive: 0.027 | inactive: -0.017 | inactive: -0.006 | inactive: 0.026 | inactive: 0 | inactive: -0.025 | inactive: -0.012 | inactive: -0.047 | inactive: 0.017 | inactive: -0.02 | inactive: -0.013 | inactive: 0.04 | inactive: 0.008 | inactive: -0.066 |
| KIF3B (UniProt O15066) | inactive: -0.024 | inactive: 0.086 | inactive: 0.065 | inactive: 0.002 | inactive: -0.058 | inactive: 0.239 | inactive: 0.037 | inactive: 0.086 | inactive: -0.003 | inactive: -0.058 | inactive: 0.068 | inactive: 0.009 | inactive: 0.285 | inactive: -0.04 | inactive: -0.027 | inactive: 0.015 |  | inactive: -0.003 | inactive: 0.019 | inactive: 0.065 |
| KIAA2013 (UniProt Q8IYS2) | inactive: 0.003 | inactive: -0.084 | inactive: 0.02 | inactive: 0.03 | inactive: -0.02 | inactive: 0 | inactive: -0.002 | inactive: -0.021 | inactive: -0.021 | inactive: -0.014 | inactive: 0.001 | inactive: 0.013 | inactive: 0.019 | inactive: 0.012 | inactive: -0.004 | inactive: 0.066 | inactive: 0.005 | inactive: -0.019 | inactive: -0.029 | inactive: 0.013 |
| KLC4 isoform 3 (UniProt Q9NSK0) | inactive: 0 | inactive: -0.017 | inactive: 0.05 | inactive: 0 | inactive: 0 | inactive: 0.018 | inactive: -0.029 | inactive: -0.056 | inactive: 0.007 | inactive: -0.021 | inactive: -0.007 | inactive: 0.012 | inactive: 0.008 | inactive: -0.023 | inactive: -0.024 | inactive: -0.018 | inactive: 0.009 | inactive: 0.019 | inactive: -0.001 | inactive: 0.003 |
| KIF13B (UniProt Q9NQT8) | inactive: 0.025 | inactive: 0.042 | inactive: 0.001 | inactive: -0.038 | inactive: -0.026 | inactive: -0.034 | inactive: -0.064 | inactive: -0.011 | inactive: -0.005 | inactive: 0.031 | inactive: 0.044 | inactive: 0.021 | inactive: 0.023 | inactive: -0.128 | inactive: 0.018 | inactive: -0.026 | inactive: -0.046 | inactive: -0.064 | inactive: -0.037 | inactive: -0.02 |

Single records (already shown). Values in the order: log2 fold change (erlotinib) | log2 fold change [1] | log2 fold change [2] | log2 fold change [3] | log2 fold change [4] | log2 fold change [5] | log2 fold change [6] | log2 fold change [7] | log2 fold change [8] | log2 fold change (IRAK-1-4 Inhibitor I) | log2 fold change (ibrutinib) | log2 fold change [9] | log2 fold change (ralimetinib) | log2 fold change [10] | log2 fold change [11] | log2 fold change [12] | log2 fold change [13] | log2 fold change [14] | log2 fold change [15] | log2 fold change [16]
LAMTOR2 (UniProt Q9Y2Q5) reads inactive: 0.03 | inactive: -0.03 | inactive: -0.007 | inactive: 0.032 | inactive: -0.011 | inactive: -0.038 | inactive: -0.024 | inactive: -0.05 | inactive: 0.021 | inactive: 0.05 | inactive: 0.002 | inactive: -0.087 | inactive: 0 | inactive: -0.038 | inactive: -0.009 | inactive: -0.039 | inactive: -0.014 | inactive: 0.058 | inactive: 0.026 | inactive: 0.055
KIF13B (UniProt Q9NQT8) reads inactive: 0.025 | inactive: 0.042 | inactive: 0.001 | inactive: -0.038 | inactive: -0.026 | inactive: -0.034 | inactive: -0.064 | inactive: -0.011 | inactive: -0.005 | inactive: 0.031 | inactive: 0.044 | inactive: 0.021 | inactive: 0.023 | inactive: -0.128 | inactive: 0.018 | inactive: -0.026 | inactive: -0.046 | inactive: -0.064 | inactive: -0.037 | inactive: -0.02
